The text below walks through data of patent publication US20180214548A1.

The target of this test is cyno PD-1, full length, on CHO-K1 cells (cyno monkey) (UniProt B0LAJ3). Kind of test: flow cytometry on activated cyno monkey PBMCs (MFI). Background: In flow cytometry, cells or beads pass a laser one at a time.

Results are given in words; binding and its absence hold for the method and conditions named. Some results given as binding are weak or reduced against the parent protein; the word gives no strength.

B1: fully human anti-PD-1 antibody 76G5B3 (antibody, human IgG4 S228P, kappa, V domains shown)
VH: QVQLVESGGGVVQPGRSLRLSCAASGFTFSDYGFHWVRQAPGKGLEWVAVIWYDGSNEYYTDSVKGRFTISRDNSKNTLYLQMNSLRAEDTAMYFCVVNPFDYWGQGTLVTVSS
VL: DIQMTQSPSSLSAFVGDRVTITCRASQGINHYLAWYQQKPGKAPNLLILAASTLLSGVPSRFGGRGSGTDFTLIISSLQPEDVATYYCQKYDSAPYTFGQGTKLEIKR
Regarding B1, the binding result is “binds”.
